No constants are given. Whether binding was seen depends on the method and setting. Binding seen in cells or lysates may run through a third protein. Some entries that bind do so weakly or less than the wild type.
Key:
[1] = target: β-catenin (mouse (endogenous in MLO-Y4 and MC3T3-E1)) (UniProt Q02248); assay: co-IP; endogenous proteins; Np-40 lysate (1 μg/μL) of MLO-Y4 and of MC3T3-E1 cells, pre-cleaned with protein G magnetic beads; precipitated with 10 μg rabbit-anti-mouse β-catenin antibody and protein G magnetic beads; rabbit IgG as control; Western blot for Cx43
[2] = target: connexin 43 (mouse (endogenous in MLO-Y4 and MC3T3-E1)) (UniProt P23242); assay: co-IP; endogenous proteins; Np-40 lysate (1 μg/μL) of MLO-Y4 and of MC3T3-E1 cells, pre-cleaned with protein G magnetic beads; precipitated with 10 μg rabbit-anti-mouse Cx43 antibody and protein G magnetic beads; rabbit IgG as control; Western blot for β-catenin

Amino acid sequences for entries named in this document (tags omitted).
UniProt Q02248: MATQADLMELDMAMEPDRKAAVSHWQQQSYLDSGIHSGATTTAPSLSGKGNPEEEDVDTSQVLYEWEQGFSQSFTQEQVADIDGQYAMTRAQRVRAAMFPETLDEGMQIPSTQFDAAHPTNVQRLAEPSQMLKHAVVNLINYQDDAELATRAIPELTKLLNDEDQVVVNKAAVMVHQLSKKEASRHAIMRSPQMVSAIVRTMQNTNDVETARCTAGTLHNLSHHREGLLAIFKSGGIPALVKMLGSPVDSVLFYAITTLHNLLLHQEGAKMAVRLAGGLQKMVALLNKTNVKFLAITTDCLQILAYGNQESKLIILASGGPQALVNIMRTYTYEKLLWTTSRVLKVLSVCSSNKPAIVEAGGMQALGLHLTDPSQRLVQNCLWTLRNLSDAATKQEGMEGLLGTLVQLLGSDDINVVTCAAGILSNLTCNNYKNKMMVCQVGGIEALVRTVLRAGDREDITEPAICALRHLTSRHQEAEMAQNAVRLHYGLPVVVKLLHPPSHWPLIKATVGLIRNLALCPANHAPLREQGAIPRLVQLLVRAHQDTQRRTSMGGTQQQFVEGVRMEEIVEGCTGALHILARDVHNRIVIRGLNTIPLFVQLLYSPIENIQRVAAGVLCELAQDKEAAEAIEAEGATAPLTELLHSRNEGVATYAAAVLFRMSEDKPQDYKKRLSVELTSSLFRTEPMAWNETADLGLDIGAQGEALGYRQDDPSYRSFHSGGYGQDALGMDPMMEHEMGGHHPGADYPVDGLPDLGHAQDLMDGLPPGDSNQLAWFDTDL
UniProt P23242: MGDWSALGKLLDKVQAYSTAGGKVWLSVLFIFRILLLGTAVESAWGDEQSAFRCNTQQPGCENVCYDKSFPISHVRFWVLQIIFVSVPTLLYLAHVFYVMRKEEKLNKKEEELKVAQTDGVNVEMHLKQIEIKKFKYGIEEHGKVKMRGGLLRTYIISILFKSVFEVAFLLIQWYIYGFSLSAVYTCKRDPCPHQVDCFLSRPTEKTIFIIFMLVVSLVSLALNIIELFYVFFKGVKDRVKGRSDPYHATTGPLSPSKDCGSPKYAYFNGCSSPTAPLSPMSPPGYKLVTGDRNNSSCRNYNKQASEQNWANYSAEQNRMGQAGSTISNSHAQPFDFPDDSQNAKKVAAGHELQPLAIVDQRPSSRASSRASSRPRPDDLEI

connexin 43 (from UniProt P23242 1-382)
binding [1]: binds

β-catenin (from UniProt Q02248 1-781)
binding [2]: binds

Source: article PMC10342113
